Experimental data published in patent US20190374506A1, “COMPOSITIONS AND METHODS FOR TREATING CANCER” (BETH ISREAL DEACONESS MEDICAL CENTER, priority 2016, published 2019).
Results are given in words; binding and its absence hold for the method and conditions named. Some binding calls cover weakened binding; strength is not graded here.

Target: HA-PTEN (human), P60484
Assay: anti-PTEN immunoprecipitation from DU145 cells transfected with HA-PTEN, SDS-PAGE, mass-spectrometric peptide sequencing of the bands (association in the precipitate)
Conditions: remark: other sources report otherwise

binding: binds
B1: C-1-tetrahydrofolate synthase (enzyme)
chain: MAPAEILNGKEISAQIRARLKNQVTQLKEQVPGFTPRLAILQVGNRDDSNLYINVKLKAAEEIGIKATHIKLPRTTTESEVMKYITSLNEDSTVHGFLVQLPLDSENSINTEEVINAIAPEKDVDGLTSINAGKLARGDLNDCFIPCTPKGCLELIKETGVPIAGRHAVVVGRSKIVGAPMHDLLLWNNATVTTCHSKTAHLDEEVNKGDILVVATGQPEMVKGEWIKPGAIVIDCGINYVPDDKKPNGRKVVGDVAYDEAKERASFITPVPGGVGPMTVAMLMQSTVESAKRFLEKFKPGKWMIQYNNLNLKTPVPSDIDISRSCKPKPIGKLAREIGLLSEEVELYGETKAKVLLSALERLKHRPDGKYVVVTGITPTPLGEGKSTTTIGLVQALGAHLYQNVFACVRQPSQGPTFGIKGGAAGGGYSQVIPMEEFNLHLTGDIHAITAANNLVAAAIDARIFHELTQTDKALFNRLVPSVNGVRRFSDIQIRRLKRLGIEKTDPTTLTDEEINRFARLDIDPETITWQRVLDTNDRFLRKITIGQAPTEKGHTRTAQFDISVASEIMAVLALTTSLEDMRERLGKMVVASSKKGEPVSAEDLGVSGALTVLMKDAIKPNLMQTLEGTPVFVHAGPFANIAHGNSSIIADRIALKLVGPEGFVVTEAGFGADIGMEKFFNIKCRYSGLCPHVVVLVATVRALKMHGGGPTVTAGLPLPKAYIQENLELVEKGFSNLKKQIENARMFGIPVVVAVNAFKTDTESELDLISRLSREHGAFDAVKCTHWAEGGKGALALAQAVQRAAQAPSSFQLLYDLKLPVEDKIRIIAQKIYGADDIELLPEAQHKAEVYTKQGFGNLPICMAKTHLSLSHNPEQKGVPTGFILPIRDIRASVGAGFLYPLVGTMSTMPGLPTRPCFYDIDLDPETEQVNGLF
